From PubChem BioAssay AID1487 (National Center for Advancing Translational Sciences (NCATS), 2009)
“And” between values parts separate entries of the source, which are not always exact repeats. Identical values can stand only once. Some of the results follow. Shown are side measurements of this screen, not its main read-out; they come without a call. Most of these compounds were active or inconclusive in the main read-out, so they are no random draw. Potencies come from curve fits of mixed quality, noted in brackets.

Experiment: qHTS Assay for Modulators of Lamin A Splicing
Conditions: HeLa LMNA splicing GFP/RFP minigene ratio, 48 h
In short: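 S3 HeLa cells stably expressing lamin A-EGFP splicing minigene plus DsRed2, 600 cells/well, 48 h compound exposure at 37C. Laser-scanning cytometry; analysed as GFP (500-530 nm)/RFP (575-640 nm) total intensity ratio; 0.5% DMSO vehicle.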

[1] = measured here: GFP splicing reporter channel
[2] = measured here: RFP viability control channel

| Structure (SMILES) | AC50 [1] | AC50 [2] |
| --- | --- | --- |
| CCN(CC)C(=O)CSc1nnc([C@H](Cc2c[nH]c3ccccc23)NC(=O)OC(C)(C)C)o1 | 11.2 µM [rising, single point] |  |
| O=C(CCOc1ccccc1)N(Cc1cccnc1)c1nc2c(Cl)cccc2s1 | 14.1 µM [falling, partial curve, poor fit] | 15.8 µM [falling, partial curve, poor fit] |
| CC(O)C(=O)O (centres undefined) | 0.708 µM [falling, partial curve] | 6.31 µM [rising, single point] |
| CN1CCc2cccc3c2[C@@H]1Cc1ccc(O)c(O)c1-3 |  | 35.5 µM [rising, single point] |
| Cc1cccc(N2CCN(C(=O)c3ccc(N4CCCC4=O)cc3)CC2)c1C |  | 25.1 µM [rising, partial curve] |
| Cc1nn(-c2ccccc2)c(Cl)c1/C=N/NC(=O)OC(C)(C)C |  | 8.91 µM [rising, partial curve] |
| CCOCCCNc1ncnc2c1[nH]c1ccccc12 | 31.6 µM [rising, single point] | 31.6 µM [rising, single point] |
| CCOc1ccc2nc(NCCNS(=O)(=O)c3ccccc3)c(C#N)cc2c1 |  | 25.1 µM [falling, partial curve, poor fit] |
| CN(C)CCOC(c1ccccc1)c1ccccc1 | 794 nM [falling, partial curve, poor fit] and 31.6 µM [falling, partial curve] | 17.8 µM [rising, partial curve, poor fit] and 35.5 µM [falling, single point] |
| Cc1cccc(NC(=O)c2c(C)nn(-c3ccccc3)c2Cl)c1 | 10 µM [rising, partial curve] |  |
| C[C@H]1C[C@@H]2[C@@H]([C@@H](O)C[C@@]3(C)[C@H]2CC[C@]3(O)C(=O)CO)[C@@]2(C)C=CC(=O)C=C12 | 8.91 µM [falling, single point] |  |
| COc1ccc(OC)c(NC(=O)C23CC4CC(C2)CC(n2cnc(Br)n2)(C4)C3)c1 |  | 31.6 µM [rising, single point] |
| Cn1c(Sc2ccc(Br)cc2)c(C=O)c2ccccc21 | 2 µM [rising, partial curve] | 17.8 µM [rising, single point] |
| CC(C)(C)NC(=O)CN(C(=O)C1CSC(=O)C1)c1ccccc1F (centres undefined) | 0.01 µM [falling, full curve, poor fit] | 0.00447 µM [falling, full curve] |
| COc1cc(OC)cc(C(=O)NNC(=O)NC2CCCCC2)c1 |  | 35.5 µM [rising, single point] |
| O=S(=O)(NCC(c1ccco1)N1CCN(c2ccccc2F)CC1)c1ccc2c(c1)OCCO2 (centres undefined) |  | 11.2 µM [rising, partial curve] |
| CC(=O)Nc1ccc(Nc2ccc3nonc3c2[N+](=O)[O-])cc1 |  | 0.0282 µM [rising, full curve, poor fit] |
| O=C(N/N=C/c1ccc(OCC2COCCO2)cc1)c1ccc(Br)cc1 (centres undefined) |  | 2.82 µM [rising, partial curve] |
| Cc1ccc2nc(N(Cc3cccnc3)C(=O)c3cccs3)sc2c1 |  | 39.8 µM [falling, partial curve, poor fit] |

| Structure (SMILES) | AC50 [1] | AC50 [2] |
| --- | --- | --- |
| Cc1cnc(C(=O)OCC(=O)NCCCc2ccccc2)cn1 |  | 11.2 µM [falling, partial curve] |
| CC/C(=N\NC(=O)c1cc(C)nc2ccccc12)c1ccc(C)s1 |  | 11.2 µM [rising, single point] |
| O=C(Nc1nc2ccccc2s1)c1cc(-c2ccccc2)nn1-c1ccccc1 | 2.51 µM [rising, single point] | 6.31 µM [rising, full curve] |
| COCc1nnc(SCC(=O)Nc2cccc(Cl)c2C)n1-c1ccccc1 | 12.6 µM [rising, single point] |  |
| N#C/C(=C/C=C/c1ccccc1)C(=O)Nc1ccccc1 |  | 2 µM [rising, full curve, poor fit] |
| O=C(NCc1ccco1)/C(=C\C=C\c1ccccc1)NC(=O)c1ccccc1Br |  | 25.1 µM [falling, partial curve] |
| CCOC(=O)CCNCc1ccc(F)cc1 | 0.398 µM [falling, partial curve] |  |
| CCc1nnc(NC(=O)CCC(=O)N2CCN(Cc3ccc(Cl)cc3)CC2)s1 |  | 10 µM [rising, partial curve] |
| O=C(C1CCC(CNc2nc(=S)[nH]c3ccccc23)CC1)N1CCN(c2ccc(F)cc2)CC1 (centres undefined) | 3.55 µM [falling, full curve] | 0.794 µM [falling, full curve, poor fit] |
| COc1cc(/C=N/NC(=O)CCN2CCN(c3ccccc3)CC2)cc(OC)c1OC |  | 0.316 µM [rising, partial curve, poor fit] |
| CCOc1cc(/C=C2/NC(=O)N(CC(=O)OC)C2=O)ccc1O |  | 3.16 µM [falling, full curve] |
| COCCCNC(=O)CN(c1ccc(Cl)c(Cl)c1)S(C)(=O)=O |  | 31.6 µM [rising, single point] |
| CN1CCN(c2ncc3nc(-c4cn(C)c5ccccc45)c(=O)n(Cc4cccs4)c3n2)CC1 | 17.8 µM [falling, partial curve] | 22.4 µM [falling, partial curve] |
| COc1ccc2[nH]c3nc(SCc4nnc(-c5ccccc5)o4)nnc3c2c1 | 7.94 µM [rising, partial curve] | 5.01 µM [rising, full curve] |
| Cc1ccc(-c2nc(CN(C)C3CCOC3)c(C)o2)s1 (centres undefined) |  | 4.47 µM [falling, full curve] |
| CCc1ccccc1NC(=O)Cc1ccc(-n2cccc2)cc1 | 17.8 µM [rising, single point] | 35.5 µM [rising, single point] |
| CC(C)(Oc1cccc2ccccc12)C(=O)O | 3.55 µM [rising, full curve, poor fit] |  |
| Cc1cc2nc(-c3cccc(NC(=O)c4ccc(Br)o4)c3C)oc2cc1C |  | 11.2 µM [rising, partial curve] |
| O=C(O)CCCCC(=O)O |  | 0.178 µM [rising, full curve, poor fit] |

| Structure (SMILES) | AC50 [1] | AC50 [2] |
| --- | --- | --- |
| Cc1ccc(C(=O)N2NC(c3ccc(F)cc3)C3C(=O)N(c4ccc(C)c(C)c4)C(=O)C32)cc1 (centres undefined) |  | 0.0251 µM [falling, full curve, poor fit] |
| CCOC(=O)c1c(-c2ccccc2Cl)csc1NC(=O)c1cc(S(=O)(=O)N2CCOCC2)ccc1C | 11.2 µM [rising, partial curve, poor fit] | 22.4 µM [rising, partial curve] |
| COc1ccc(-c2cn3c(n2)CCC3)cc1 |  | 3.55 µM [rising, partial curve, poor fit] |
| COc1ccc(Cl)cc1C(=O)Nc1ccc(CN2CCCCC2)cc1 | 0.112 µM [falling, full curve, poor fit] | 0.158 µM [falling, single point] |
| COC(=O)CNC(=O)COC(=O)/C=C/c1ccc2ccccc2n1 |  | 15.8 µM [rising, partial curve] |
| O=C(Cn1cc(S(=O)(=O)Cc2ccccc2F)c2ccccc21)NCc1ccccc1Cl | 35.5 µM [falling, single point] |  |
| Cc1cc(C)cc(NC(=O)CN2C(=O)CCc3cc(S(=O)(=O)N4CCCCC4)ccc32)c1 |  | 5.62 µM [rising, single point] |
| O=C(Nc1ccc(N2CCOCC2)c(Cl)c1)c1ccc(Br)o1 |  | 25.1 µM [rising, single point] |
| CC(=O)N1c2ccc(S(=O)(=O)NCC3CCC(C(=O)Nc4ccc(F)cc4)CC3)cc2CC1C (centres undefined) | 35.5 µM [falling, single point] | 2.51 µM [falling, partial curve] |
| CCn1cc([N+](=O)[O-])c(C(=O)N2N=C(c3ccc4ccccc4c3)CC2c2cc(Br)ccc2O)n1 (centres undefined) | 31.6 µM [falling, single point] | 35.5 µM [falling, single point] |
| Cc1nnc(SCC(=O)Nc2cccc(C(F)(F)F)c2)n1Cc1ccco1 | 1.78 µM [falling, partial curve] |  |
| C/C(CC(=O)NC12CC3CC(CC(C3)C1)C2)=N\NC(=O)c1ccc(C)cc1 | 12.6 µM [falling, partial curve, poor fit] | 0.251 µM [falling, full curve, poor fit] |
| CCOc1ccc(OCC)c(NS(=O)(=O)c2ccc3[nH]c(=O)ccc3c2)c1 |  | 0.398 µM [rising, partial curve, poor fit] |
| CC(=O)Nc1ccc(S(=O)(=O)Nc2cccc(N(C)S(C)(=O)=O)c2)cc1 | 15.8 µM [rising, partial curve, poor fit] | 17.8 µM [rising, partial curve] |
| COc1ccc(NC(C)C(=O)N/N=C/c2ccc([N+](=O)[O-])s2)cc1 (centres undefined) |  | 28.2 µM [rising, single point] |
| Cc1cc(C)c(C#N)c(SCC(=O)N(C)C2CCCCC2)n1 | 11.2 µM [rising, single point] | 3.16 µM [rising, single point] |
| Cn1ccnc1SCC(=O)Nc1ccc(Oc2ccccc2)cc1 |  | 22.4 µM [rising, single point] |
| CCOC(=O)/C(C#N)=C1/C=C(C)NC(c2ccccc2O)=N1 |  | 2 µM [rising, full curve] |
